Assay results reported in publication PMC3387162.
No constants are given. Whether binding was seen depends on the method and setting. Binding seen in cells or lysates may run through a third protein. Some binding calls cover weakened binding; strength is not graded here.

Chains of the proteins cited; added tags and fusions are not shown. Residues count along the entry.
UniProt P62812, residues 28-455: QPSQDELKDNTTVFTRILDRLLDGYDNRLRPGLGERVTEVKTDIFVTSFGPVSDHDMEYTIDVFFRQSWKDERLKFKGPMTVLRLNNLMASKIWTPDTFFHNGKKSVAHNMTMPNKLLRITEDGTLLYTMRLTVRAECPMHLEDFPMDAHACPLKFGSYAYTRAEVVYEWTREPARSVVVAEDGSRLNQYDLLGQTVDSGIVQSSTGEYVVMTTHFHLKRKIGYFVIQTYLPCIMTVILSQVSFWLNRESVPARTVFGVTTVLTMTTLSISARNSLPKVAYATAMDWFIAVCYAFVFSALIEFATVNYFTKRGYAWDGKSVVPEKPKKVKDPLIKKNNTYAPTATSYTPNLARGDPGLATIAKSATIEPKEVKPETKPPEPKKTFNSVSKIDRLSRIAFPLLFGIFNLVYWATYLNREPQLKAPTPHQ
UniProt Q99K10, residues 46-843: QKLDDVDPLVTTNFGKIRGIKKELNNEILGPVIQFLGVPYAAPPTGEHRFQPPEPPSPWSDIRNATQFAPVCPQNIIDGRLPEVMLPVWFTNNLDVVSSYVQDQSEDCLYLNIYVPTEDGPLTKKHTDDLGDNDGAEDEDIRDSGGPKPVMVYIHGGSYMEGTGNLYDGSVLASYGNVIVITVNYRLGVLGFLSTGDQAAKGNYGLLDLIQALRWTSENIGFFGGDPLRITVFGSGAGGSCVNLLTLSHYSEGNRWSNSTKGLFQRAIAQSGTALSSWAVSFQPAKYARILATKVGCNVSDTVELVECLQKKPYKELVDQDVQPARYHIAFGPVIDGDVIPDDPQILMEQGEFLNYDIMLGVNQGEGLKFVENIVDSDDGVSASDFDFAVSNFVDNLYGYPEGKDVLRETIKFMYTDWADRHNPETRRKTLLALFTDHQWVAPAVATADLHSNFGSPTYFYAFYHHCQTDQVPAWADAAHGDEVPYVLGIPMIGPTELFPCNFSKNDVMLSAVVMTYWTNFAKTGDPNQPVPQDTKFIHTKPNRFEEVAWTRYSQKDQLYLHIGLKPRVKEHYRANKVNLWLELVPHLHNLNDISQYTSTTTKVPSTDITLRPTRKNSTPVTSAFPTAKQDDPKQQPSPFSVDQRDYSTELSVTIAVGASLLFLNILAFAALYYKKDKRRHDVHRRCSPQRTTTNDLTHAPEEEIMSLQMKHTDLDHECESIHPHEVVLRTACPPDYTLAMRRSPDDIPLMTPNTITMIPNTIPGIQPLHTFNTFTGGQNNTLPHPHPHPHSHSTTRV
UniProt Q69ZK9, residues 15-836: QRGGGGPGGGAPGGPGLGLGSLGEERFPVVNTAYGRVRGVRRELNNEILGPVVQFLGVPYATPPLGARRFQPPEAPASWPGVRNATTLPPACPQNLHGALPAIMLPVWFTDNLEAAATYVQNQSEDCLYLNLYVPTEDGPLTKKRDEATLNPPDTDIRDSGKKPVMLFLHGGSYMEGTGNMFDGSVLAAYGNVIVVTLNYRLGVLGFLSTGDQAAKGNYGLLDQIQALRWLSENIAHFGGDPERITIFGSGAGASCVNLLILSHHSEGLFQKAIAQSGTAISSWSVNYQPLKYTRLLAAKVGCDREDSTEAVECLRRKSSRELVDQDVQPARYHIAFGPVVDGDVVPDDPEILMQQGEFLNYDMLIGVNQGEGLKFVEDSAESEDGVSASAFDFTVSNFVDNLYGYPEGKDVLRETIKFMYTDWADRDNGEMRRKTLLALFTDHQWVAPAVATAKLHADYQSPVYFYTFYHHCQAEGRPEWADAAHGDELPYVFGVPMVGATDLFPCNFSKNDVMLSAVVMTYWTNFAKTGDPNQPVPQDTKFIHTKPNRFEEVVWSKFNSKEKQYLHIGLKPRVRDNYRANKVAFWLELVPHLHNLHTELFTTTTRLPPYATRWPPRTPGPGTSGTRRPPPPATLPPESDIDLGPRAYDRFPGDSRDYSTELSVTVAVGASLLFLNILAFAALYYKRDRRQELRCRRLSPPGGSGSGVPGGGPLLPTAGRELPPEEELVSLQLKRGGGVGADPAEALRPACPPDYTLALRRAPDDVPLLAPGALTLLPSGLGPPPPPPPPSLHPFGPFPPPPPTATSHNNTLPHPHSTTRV
UniProt Q8BYM5, residues 35-825: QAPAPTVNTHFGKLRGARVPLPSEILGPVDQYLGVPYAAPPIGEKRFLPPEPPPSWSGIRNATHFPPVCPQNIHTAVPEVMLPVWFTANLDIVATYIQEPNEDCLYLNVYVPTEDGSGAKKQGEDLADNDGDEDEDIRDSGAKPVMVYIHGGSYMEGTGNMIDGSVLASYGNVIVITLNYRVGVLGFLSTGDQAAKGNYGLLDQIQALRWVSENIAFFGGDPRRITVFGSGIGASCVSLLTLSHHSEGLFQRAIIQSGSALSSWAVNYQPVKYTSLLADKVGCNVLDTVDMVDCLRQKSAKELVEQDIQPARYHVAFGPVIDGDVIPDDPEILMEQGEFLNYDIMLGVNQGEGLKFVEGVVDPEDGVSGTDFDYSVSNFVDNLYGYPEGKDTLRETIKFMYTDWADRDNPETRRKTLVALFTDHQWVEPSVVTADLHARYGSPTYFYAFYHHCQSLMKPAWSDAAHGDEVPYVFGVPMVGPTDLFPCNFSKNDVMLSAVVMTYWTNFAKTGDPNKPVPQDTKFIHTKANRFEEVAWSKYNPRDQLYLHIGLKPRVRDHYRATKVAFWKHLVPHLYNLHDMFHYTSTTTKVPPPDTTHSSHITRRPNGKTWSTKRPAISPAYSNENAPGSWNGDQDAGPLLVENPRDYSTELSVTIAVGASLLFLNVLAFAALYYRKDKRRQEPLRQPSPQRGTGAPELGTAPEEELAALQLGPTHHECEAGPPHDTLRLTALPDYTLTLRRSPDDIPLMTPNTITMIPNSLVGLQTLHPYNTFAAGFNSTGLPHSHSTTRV

Target: Venus-GABAA receptor α1 subunit fusion (inhibitory synapse affinity tag) (UniProt P62812)
Assay: co-IP; crude synaptosome fraction of adult mouse cortex (Otx1-VGABAARα1 or Otx1-eGFP control) solubilised in 0.1% Triton X-100, gel filtration on Sephacryl S1000, high molecular weight fractions 6-10 pooled; immunopurified with anti-eGFP antibody on Dynabeads Protein G; immunoblot

| Substance | binding |
| --- | --- |
| Neuroligin 1 (from UniProt Q99K10 46-843) | no binding |
| Neuroligin 2 (from UniProt Q69ZK9 15-836) | binds |
| Neuroligin 3 (from UniProt Q8BYM5 35-825) | binds |
